The values below come from paper PMC8385080.

Chains of the proteins cited; added tags and fusions are not shown. Residues count along the entry.
UniProt Q13873, residues 27-1038: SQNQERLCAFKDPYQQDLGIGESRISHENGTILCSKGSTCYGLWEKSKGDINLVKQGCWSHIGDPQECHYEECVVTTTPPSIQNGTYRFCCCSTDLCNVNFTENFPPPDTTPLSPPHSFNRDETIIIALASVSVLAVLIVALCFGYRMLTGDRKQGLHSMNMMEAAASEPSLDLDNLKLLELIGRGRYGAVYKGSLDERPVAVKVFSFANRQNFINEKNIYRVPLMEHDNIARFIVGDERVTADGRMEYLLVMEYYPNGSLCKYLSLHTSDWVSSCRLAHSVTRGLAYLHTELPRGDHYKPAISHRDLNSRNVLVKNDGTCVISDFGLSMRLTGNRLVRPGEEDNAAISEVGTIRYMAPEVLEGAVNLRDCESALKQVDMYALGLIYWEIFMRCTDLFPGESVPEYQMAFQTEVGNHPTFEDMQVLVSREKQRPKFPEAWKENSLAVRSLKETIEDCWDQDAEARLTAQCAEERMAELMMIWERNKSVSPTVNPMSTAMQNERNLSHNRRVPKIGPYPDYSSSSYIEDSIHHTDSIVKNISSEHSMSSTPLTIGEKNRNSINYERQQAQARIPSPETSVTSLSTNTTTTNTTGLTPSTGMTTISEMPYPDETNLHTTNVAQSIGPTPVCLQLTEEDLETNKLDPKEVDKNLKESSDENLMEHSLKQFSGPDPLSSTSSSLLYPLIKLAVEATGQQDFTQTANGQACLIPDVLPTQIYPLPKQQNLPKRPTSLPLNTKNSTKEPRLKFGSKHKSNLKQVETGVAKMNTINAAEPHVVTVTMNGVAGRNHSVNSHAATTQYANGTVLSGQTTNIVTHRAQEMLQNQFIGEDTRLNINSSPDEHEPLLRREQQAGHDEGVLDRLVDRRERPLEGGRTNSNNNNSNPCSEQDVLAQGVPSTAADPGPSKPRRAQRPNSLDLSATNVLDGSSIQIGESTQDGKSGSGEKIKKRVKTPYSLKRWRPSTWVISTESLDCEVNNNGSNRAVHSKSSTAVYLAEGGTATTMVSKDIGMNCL
UniProt P30530, residues 26-894: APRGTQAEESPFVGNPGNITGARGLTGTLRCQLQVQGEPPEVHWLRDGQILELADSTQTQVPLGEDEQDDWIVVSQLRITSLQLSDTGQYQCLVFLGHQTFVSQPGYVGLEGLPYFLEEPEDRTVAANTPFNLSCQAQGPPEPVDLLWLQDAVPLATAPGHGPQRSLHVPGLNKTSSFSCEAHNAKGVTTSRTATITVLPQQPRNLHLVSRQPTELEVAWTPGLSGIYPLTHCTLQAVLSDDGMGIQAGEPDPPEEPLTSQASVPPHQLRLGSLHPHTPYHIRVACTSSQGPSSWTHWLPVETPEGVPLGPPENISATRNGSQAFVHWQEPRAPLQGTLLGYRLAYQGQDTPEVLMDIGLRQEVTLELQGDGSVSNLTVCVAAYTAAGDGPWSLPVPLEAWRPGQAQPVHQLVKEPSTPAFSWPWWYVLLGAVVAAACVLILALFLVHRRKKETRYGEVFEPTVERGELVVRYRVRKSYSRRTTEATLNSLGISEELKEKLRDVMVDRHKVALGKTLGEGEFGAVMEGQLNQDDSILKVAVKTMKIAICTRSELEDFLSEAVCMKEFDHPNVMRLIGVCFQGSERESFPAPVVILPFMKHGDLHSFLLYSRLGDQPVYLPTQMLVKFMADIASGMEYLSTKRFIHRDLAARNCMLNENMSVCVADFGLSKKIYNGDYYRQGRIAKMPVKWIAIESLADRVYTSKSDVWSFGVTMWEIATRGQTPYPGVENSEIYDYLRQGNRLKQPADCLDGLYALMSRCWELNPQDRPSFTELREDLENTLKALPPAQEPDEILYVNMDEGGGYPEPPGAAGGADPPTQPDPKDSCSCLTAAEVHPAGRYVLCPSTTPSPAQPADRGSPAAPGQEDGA

Test [1] concerns the target endogenous BMPR2 (human (endogenous in hPAECs)) (UniProt Q13873). As to the kind of experiment: proximity ligation; Duolink PLA of Axl and BMPR2 in hPAECs, basal (DMSO) and after BMP9/Gas6 stimulation.
Test [2] has the same target. As to the kind of experiment: co-IP; hPAEC lysate (IP lysis buffer); IP with BMPR2 antibody, IgG1 as negative control; western blot for Axl; also after 48 h of BMP9/Gas6 stimulation. (Immunoblotting shows a protein as a band on a membrane.)
For test [3], the target named is Flag-Axl (UniProt P30530). Description: co-IP; HEK293 cells co-transfected with AXL-FLAG and BMPR2-Myc, lysed 24 h after transfection in IP lysis buffer; IP with FLAG antibody or with BMPR2 antibody, protein A/G agarose, overnight at 4 °C; western blot.
Test [4] addresses BMPR2-Myc (UniProt Q13873). The test is described as above.

These are yes or no findings as the source states them, for the method shown. In cells and extracts the contact can be indirect. Some results given as binding are weak or reduced against the parent protein; the word gives no strength.

On to “endogenous Axl (from UniProt P30530 26-894) (receptor)”, for which the binding result in test [1] and in test [2] was “binds” throughout.

Consider “BMPR2-Myc (from UniProt Q13873 27-1038) (receptor)”, for which the binding entry in test [3] is listed as “binds”. “Flag-Axl (from UniProt P30530 26-894) (receptor)”: in test [4], the binding result was “binds”.
